Results from paper PMC11530599.
These are yes or no findings as the source states them, for the method shown. In cells and extracts the contact can be indirect. Some entries that bind do so weakly or less than the wild type.

The chains behind the UniProt entries cited, without tags or fusion partners.
UniProt Q9H9Q4: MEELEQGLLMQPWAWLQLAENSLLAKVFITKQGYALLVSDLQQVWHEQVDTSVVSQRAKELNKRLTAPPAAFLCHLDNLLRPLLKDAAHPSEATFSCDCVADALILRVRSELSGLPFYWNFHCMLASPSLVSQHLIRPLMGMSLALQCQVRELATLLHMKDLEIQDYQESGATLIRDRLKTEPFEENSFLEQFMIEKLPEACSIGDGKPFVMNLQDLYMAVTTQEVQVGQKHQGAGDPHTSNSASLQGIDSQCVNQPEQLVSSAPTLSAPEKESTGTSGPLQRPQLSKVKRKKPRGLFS

Biological target: Flag-labeled XLF (UniProt Q9H9Q4)
Test: co-IP; Flag-XLF or Flag-UHRF1 overexpressed in HeLa cells for 48 h, after DNA damage; whole-cell lysate with BenzoNuclease; IP with anti-Flag antibody, Western blot of the endogenous partner; NP-40 lysis buffer (20 mM Tris-HCl pH 8.0, 137 mM NaCl, 10% glycerol, 1% NP-40), beads at 4 °C for 10 to 12 h

B1: endogenous UHRF1 (Ubiquitin-like with PHD and Ring Finger domains 1) (protein, UniProt Q96T88 1-793)
chain: MWIQVRTMDGRQTHTVDSLSRLTKVEELRRKIQELFHVEPGLQRLFYRGKQMEDGHTLFDYEVRLNDTIQLLVRQSLVLPHSTKERDSELSDTDSGCCLGQSESDKSSTHGEAAAETDSRPADEDMWDETELGLYKVNEYVDARDTNMGAWFEAQVVRVTRKAPSRDEPCSSTSRPALEEDVIYHVKYDDYPENGVVQMNSRDVRARARTIIKWQDLEVGQVVMLNYNPDNPKERGFWYDAEISRKRETRTARELYANVVLGDDSLNDCRIIFVDEVFKIERPGEGSPMVDNPMRRKSGPSCKHCKDDVNRLCRVCACHLCGGRQDPDKQLMCDECDMAFHIYCLDPPLSSVPSEDEWYCPECRNDASEVVLAGERLRESKKKAKMASATSSSQRDWGKGMACVGRTKECTIVPSNHYGPIPGIPVGTMWRFRVQVSESGVHRPHVAGIHGRSNDGAYSLVLAGGYEDDVDHGNFFTYTGSGGRDLSGNKRTAEQSCDQKLTNTNRALALNCFAPINDQEGAEAKDWRSGKPVRVVRNVKGGKNSKYAPAEGNRYDGIYKVVKYWPEKGKSGFLVWRYLLRRDDDEPGPWTKEGKDRIKKLGLTMQYPEGYLEALANREREKENSKREEEEQQEGGFASPRTGKGKWKRKSAGGGPSRAGSPRRTSKKTKVEPYSLTAQQSSLIREDKSNAKLWNEVLASLKDRPASGSPFQLFLSKVEETFQCICCQELVFRPITTVCQHNVCKDCLDRSFRAQVFSCPACRYDLGRSYAMQVNQPLQTVLNQLFPGYGNGR
In the case of B1, the binding is reported as “binds”.
